Reference: patent publication US20250353911A1

B1: cx11558 (B10a.v2.1 VHH x hz4A01v51 VHH) (bispecific antibody)
chain: EVQLLESGGGEVQPGGSLRLSCAASGSIANVDLMAWHRQAPGKQREPIAVINDAGSTYYAESVKGRFTISRDNAKNTLYLQMNSLRAEDTAVYYCNTATWRGGERYADWGQGTLVTVKPGSGGGSEVQLVESGGGEVQPGGSLRLSCAASGFTFSTSGMVWVRQAPGKGLEWVSTISDDARITVYAESVKGRFTISRDNAKNTVYLQMNSLRAEDTAVYYCATYRAGSRIGSYEDYYRGQGTLVTVKPGG
B2: cx11642 (B10a.v2.1 VHH x B10a.v2.1 VHH x hz4A01v51 VHH) (bispecific antibody)
chain: EVQLLESGGGEVQPGGSLRLSCAASGSIANVDLMAWHRQAPGKQREPIAVINDAGSTYYAESVKGRFTISRDNAKNTLYLQMNSLRAEDTAVYYCNTATWRGGERYADWGQGTLVTVKPGSGGGSEVQLLESGGGEVQPGGSLRLSCAASGSIANVDLMAWHRQAPGKQREPIAVINDAGSTYYAESVKGRFTISRDNAKNTLYLQMNSLRAEDTAVYYCNTATWRGGERYADWGQGTLVTVKPGSGGGSEVQLVESGGGEVQPGGSLRLSCAASGFTFSTSGMVWVRQAPGKGLEWVSTISDDARITVYAESVKGRFTISRDNAKNTVYLQMNSLRAEDTAVYYCATYRAGSRIGSYEDYYRGQGTLVTVKPGG
B3: cx12007 (B10a.v2.4 VHH x hz4A01v51.12 VHH) (bispecific antibody)
chain: EVQLLESGGGKVQPGGSLRLSCAASGSIANVDLMAWHRQAPGKQREPIAVINDAGSTYYAESVKGRFTISRDNAKNTLYLQMNSLRAEDTAVYYCNTATWRGGERYADWGQGTLVTVEPGSGGGSEVQLLESGGGKVQPGGSLRLSCAASGFTFSTSGMVWVRQAPGKGLEWVSTISDDARITVYAESVKGRFTISRDNAKNTVYLQMNSLRAEDTAVYYCATYRAGSRIGSYEDYYRGQGTLVTVEPGG

Legend:
[1] = molecular target: human FcRn on primary human monocytes (PBMC) (human); assay: flow cytometry, fixed and permeabilized human PBMC, gated monocytes, pH 6, AF647 detection antibody
[2] = molecular target: cynomolgus monkey FcRn on monocytes (cynomolgus monkey); assay: receptor occupancy by flow cytometry on monocytes from whole blood of dosed cynomolgus monkeys
[3] = molecular target: human FcRn on primary human monocytes (PBMC) (human); assay: flow cytometry on fixed and permeabilized human PBMC, monocyte gate, pH 7.4 and pH 6
[4] = molecular target: human FcRn on primary human monocytes (PBMC) (human); assay: flow cytometry, fixed and permeabilized human PBMC, gated monocytes, pH 7.4, AF647 detection antibody

Binder | binding [1] | binding [2] | binding [3] | binding [4]
B1 | binds | binds | binds | binds
B2 |  | binds |  | 
B3 |  | binds |  | 

These are yes or no findings as the source states them, for the method shown. Binding calls can cover weak binding; strength is not graded here.
